Laboratory results from patent US20070026433A1, “Epitope testing using soluble HLA” (priority 2001, published 2007).
“Also recorded” adds a separate entry of the source. Where two headings read alike, the source gives them in different places. At least one peptide structure holds a part that was inferred or is arguable (an end, a ring closure or a residue). Peptide text beside a SMILES is read from it. * marks the point of attachment. FITC = O=C1OC2(c3ccc(O)cc3Oc3cc(O)ccc32)c2ccc(NC(=S)*)cc21

Key:
sHLA-A*4301 = test: Multiple specificity screening by FP; type: binding, human; details: 10 nM peptide, 100 μg/mL activated sHLA
sHLA-A*0201 [1] = molecular target: T1, sHLA-A*0201 (Homo sapiens, UniProt P04439, D140Y/D185E/D98H/E176V/E277Q/G131W/G231S/I119V/I121R/I166T/I218V/L300P/L318F/N151K/N90K/P208A/P217A/Q86G/Q94H/R138H/R169H/T345S); type: binding; parameters: contained the leader peptide, as well as the α1, α2, and α3 coding domains of the HLA heavy chain; made in house; β2m from Fitzgerald Industries International; details: for Kd: titration under equilibrium conditions, sHLA 425 nM (20 μg/ml), 20° C, read-out: equilibrium dissociation constants (titration) Kd^titr
sHLA-A*1102 = molecular target: T2, sHLA-A*1102 (Homo sapiens, UniProt P04439, A114D/D185E/E176A/E43K/F33Y/L180Q/S129P/T187R); test: Multiple specificity screening by FP; type: binding; details: 10 nM peptide, 100 μg/mL activated sHLA
T2 construct: contained the leader peptide, as well as the α1, α2, and α3 coding domains of the HLA heavy chain; made in house

sHLA-A*0201 [2] = molecular target: T1, sHLA-A*0201; details: read-out: equilibrium dissociation constants (kinetics) Kd^kin; Kd^kin=koff/kon

SMILES: CSCC[C@H](NC(=O)[C@H](CC(C)C)NC(=O)[C@H](C)N)C(=O)N[C@@H](CC(=O)O)C(=O)N[C@@H](CCCCN)C(=O)N[C@H](C(=O)N[C@@H](CC(C)C)C(=O)N[C@@H](CCCCNC(=S)Nc1ccc2c(c1)C(=O)OC21c2ccc(O)cc2Oc2cc(O)ccc21)C(=O)N[C@H](C(=O)O)C(C)C)C(C)C [P5]
- binding (sHLA-A*4301): could additionally be detected
- maximum polarization signal for the bound state (sHLA-A*0201 [1]; 10 nM pFITC, sHLA-A*0201 titration): 244.6 mP
- Kd (sHLA-A*0201 [1]): 17.3 nM
- binding (sHLA-A*1102): could additionally be detected; also recorded: not stable at equilibrium
- Kd (sHLA-A*0201 [2]): 21.6 nM

SMILES: CC(C)C[C@H](N)C(=O)N[C@H](C(=O)N[C@@H](Cc1ccccc1)C(=O)NCC(=O)N[C@@H](CCCCNC(=S)Nc1ccc2c(c1)C(=O)OC21c2ccc(O)cc2Oc2cc(O)ccc21)C(=O)N[C@@H](CCC(=O)O)C(=O)N[C@H](C(=O)N[C@H](C(=O)N[C@@H](CCC(=O)O)C(=O)N[C@H](C(=O)O)C(C)C)C(C)C)C(C)C)C(C)C [P4, L V F G K E V V E V] (H-LVFGK(FITC)EVVEV-OH)
- dynamic range (binding range) (sHLA-A*0201 [1]; 10 nM pFITC, sHLA-A*0201 titration, unbound state 27 mP): 202.8 mP
- Kd (sHLA-A*0201 [1]): 21.8 nM
- Kd (sHLA-A*0201 [2]): 28.5 nM
